Drawing on patent publication US20040102364A1 (priority 2001, published 2004), this text covers isolated yield, crude mass and isolated mass for one substance.

This data set in a line: general procedure: Fmoc solid-phase peptide synthesis; Rink amide MBHA; PyBroP/DIEA; triphosgene/collidine for Fmoc-Cys(Acm)-OH. The conditions noted are these: whole synthesis, scale 0.55 mmol, cyclic, sequence written open.

“MAG3-PheC3-Cys-Phe-(D)Trp-Lys-Thr-Cys-PheN3-NH2” had a crude mass of 191 mg and an isolated mass of 12.2 mg. For the setting “from resin”, the isolated yield worked out at 2.1%.
